No constants are given. Whether binding was seen depends on the method and setting. In cells and extracts the contact can be indirect. Here binding means that the protein was enriched with, or labelled near, the bait; the list need not be complete. No binding means not detected with the bait.
Molecular target: TAP-tagged EP400NL (EP400 N-terminal-Like) (human) (UniProt Q6ZTU2)
Assay: affinity purification with mass spectrometry

Amino acid sequences for entries named in this document (tags omitted). A change or cut given only in a name is not applied to a line headed by its entry.
UniProt Q9NPF5: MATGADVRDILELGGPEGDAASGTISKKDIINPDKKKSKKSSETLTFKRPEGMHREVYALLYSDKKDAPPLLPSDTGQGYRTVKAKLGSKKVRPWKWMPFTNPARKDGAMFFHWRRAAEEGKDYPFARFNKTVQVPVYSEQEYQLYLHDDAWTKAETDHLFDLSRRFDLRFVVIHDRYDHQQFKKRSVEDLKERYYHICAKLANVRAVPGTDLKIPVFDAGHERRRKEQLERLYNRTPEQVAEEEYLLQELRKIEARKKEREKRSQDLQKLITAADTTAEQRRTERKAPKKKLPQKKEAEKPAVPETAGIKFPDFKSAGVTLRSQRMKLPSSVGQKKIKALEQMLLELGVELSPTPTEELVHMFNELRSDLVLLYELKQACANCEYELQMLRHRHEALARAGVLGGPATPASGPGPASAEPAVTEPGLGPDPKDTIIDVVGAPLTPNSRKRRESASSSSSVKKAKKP
UniProt P51532: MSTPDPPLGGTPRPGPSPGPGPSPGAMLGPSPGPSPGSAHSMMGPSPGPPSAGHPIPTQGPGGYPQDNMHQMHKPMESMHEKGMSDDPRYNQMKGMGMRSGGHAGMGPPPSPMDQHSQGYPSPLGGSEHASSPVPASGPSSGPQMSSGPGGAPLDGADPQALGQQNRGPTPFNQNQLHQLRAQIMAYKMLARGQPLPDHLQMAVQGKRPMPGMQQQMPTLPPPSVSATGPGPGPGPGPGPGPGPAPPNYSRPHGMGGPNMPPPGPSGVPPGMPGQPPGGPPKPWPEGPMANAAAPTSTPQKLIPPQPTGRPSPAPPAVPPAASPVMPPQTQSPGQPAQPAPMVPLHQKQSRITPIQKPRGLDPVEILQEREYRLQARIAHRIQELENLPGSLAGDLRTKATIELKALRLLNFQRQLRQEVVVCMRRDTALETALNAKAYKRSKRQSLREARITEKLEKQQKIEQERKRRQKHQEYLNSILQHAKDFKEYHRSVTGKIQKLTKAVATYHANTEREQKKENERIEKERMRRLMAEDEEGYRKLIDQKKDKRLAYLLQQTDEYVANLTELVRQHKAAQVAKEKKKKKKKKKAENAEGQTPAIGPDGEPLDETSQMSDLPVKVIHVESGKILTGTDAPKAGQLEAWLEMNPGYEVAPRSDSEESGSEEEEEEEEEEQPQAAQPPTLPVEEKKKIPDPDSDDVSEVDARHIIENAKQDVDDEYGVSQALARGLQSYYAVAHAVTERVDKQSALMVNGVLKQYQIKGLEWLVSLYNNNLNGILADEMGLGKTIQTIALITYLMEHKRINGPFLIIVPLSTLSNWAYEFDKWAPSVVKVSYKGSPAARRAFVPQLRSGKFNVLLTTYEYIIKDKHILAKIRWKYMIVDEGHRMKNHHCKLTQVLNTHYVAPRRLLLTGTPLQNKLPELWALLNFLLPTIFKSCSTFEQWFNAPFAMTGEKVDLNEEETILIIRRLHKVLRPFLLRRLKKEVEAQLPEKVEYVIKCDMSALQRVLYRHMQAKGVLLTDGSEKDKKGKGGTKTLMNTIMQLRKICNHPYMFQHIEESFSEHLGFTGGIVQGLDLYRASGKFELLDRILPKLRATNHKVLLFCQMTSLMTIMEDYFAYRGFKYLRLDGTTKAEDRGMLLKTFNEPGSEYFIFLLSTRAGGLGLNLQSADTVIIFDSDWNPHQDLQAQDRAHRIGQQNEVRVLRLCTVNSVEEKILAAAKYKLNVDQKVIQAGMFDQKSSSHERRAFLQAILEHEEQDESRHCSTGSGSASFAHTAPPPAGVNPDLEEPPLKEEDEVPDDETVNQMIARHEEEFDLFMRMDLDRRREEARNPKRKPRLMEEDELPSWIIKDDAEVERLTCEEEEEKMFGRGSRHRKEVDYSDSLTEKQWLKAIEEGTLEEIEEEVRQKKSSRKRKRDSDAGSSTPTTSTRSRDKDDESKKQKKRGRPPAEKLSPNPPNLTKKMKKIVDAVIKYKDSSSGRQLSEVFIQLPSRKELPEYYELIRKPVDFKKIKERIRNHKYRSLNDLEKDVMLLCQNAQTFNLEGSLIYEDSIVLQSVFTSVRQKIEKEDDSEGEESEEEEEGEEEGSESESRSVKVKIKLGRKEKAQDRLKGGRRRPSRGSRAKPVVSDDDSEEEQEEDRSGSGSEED
UniProt Q9H0E9: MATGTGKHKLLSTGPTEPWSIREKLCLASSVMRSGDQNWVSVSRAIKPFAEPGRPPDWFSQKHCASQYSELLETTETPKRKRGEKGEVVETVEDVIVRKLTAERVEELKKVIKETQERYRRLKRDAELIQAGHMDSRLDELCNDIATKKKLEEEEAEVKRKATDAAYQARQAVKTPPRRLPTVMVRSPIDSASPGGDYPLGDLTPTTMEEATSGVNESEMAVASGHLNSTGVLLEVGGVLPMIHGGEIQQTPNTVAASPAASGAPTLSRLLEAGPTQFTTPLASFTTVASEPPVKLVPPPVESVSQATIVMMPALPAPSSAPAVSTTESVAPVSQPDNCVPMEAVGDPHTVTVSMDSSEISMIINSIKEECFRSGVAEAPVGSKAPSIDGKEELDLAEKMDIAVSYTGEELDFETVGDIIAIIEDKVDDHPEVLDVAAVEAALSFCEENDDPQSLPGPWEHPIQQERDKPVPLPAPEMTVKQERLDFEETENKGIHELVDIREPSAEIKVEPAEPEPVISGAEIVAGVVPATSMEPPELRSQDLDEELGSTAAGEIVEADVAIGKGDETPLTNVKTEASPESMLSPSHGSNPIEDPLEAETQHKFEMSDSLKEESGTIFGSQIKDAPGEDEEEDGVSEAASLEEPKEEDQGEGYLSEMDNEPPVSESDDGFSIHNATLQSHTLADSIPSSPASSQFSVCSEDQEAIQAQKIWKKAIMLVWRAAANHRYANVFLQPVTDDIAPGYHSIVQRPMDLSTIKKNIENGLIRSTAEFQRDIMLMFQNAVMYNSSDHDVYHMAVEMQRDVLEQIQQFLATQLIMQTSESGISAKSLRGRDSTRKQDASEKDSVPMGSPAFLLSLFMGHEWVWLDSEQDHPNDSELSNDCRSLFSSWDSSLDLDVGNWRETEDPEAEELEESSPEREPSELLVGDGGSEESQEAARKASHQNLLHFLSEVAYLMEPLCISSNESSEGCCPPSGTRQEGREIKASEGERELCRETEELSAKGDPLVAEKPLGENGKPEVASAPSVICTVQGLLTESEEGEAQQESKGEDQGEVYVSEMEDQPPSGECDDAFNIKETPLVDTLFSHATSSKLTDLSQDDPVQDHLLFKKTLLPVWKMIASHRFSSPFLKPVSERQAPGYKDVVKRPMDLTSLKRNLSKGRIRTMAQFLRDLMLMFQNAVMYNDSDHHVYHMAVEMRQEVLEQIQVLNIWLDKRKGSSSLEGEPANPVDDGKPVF
UniProt Q96L91: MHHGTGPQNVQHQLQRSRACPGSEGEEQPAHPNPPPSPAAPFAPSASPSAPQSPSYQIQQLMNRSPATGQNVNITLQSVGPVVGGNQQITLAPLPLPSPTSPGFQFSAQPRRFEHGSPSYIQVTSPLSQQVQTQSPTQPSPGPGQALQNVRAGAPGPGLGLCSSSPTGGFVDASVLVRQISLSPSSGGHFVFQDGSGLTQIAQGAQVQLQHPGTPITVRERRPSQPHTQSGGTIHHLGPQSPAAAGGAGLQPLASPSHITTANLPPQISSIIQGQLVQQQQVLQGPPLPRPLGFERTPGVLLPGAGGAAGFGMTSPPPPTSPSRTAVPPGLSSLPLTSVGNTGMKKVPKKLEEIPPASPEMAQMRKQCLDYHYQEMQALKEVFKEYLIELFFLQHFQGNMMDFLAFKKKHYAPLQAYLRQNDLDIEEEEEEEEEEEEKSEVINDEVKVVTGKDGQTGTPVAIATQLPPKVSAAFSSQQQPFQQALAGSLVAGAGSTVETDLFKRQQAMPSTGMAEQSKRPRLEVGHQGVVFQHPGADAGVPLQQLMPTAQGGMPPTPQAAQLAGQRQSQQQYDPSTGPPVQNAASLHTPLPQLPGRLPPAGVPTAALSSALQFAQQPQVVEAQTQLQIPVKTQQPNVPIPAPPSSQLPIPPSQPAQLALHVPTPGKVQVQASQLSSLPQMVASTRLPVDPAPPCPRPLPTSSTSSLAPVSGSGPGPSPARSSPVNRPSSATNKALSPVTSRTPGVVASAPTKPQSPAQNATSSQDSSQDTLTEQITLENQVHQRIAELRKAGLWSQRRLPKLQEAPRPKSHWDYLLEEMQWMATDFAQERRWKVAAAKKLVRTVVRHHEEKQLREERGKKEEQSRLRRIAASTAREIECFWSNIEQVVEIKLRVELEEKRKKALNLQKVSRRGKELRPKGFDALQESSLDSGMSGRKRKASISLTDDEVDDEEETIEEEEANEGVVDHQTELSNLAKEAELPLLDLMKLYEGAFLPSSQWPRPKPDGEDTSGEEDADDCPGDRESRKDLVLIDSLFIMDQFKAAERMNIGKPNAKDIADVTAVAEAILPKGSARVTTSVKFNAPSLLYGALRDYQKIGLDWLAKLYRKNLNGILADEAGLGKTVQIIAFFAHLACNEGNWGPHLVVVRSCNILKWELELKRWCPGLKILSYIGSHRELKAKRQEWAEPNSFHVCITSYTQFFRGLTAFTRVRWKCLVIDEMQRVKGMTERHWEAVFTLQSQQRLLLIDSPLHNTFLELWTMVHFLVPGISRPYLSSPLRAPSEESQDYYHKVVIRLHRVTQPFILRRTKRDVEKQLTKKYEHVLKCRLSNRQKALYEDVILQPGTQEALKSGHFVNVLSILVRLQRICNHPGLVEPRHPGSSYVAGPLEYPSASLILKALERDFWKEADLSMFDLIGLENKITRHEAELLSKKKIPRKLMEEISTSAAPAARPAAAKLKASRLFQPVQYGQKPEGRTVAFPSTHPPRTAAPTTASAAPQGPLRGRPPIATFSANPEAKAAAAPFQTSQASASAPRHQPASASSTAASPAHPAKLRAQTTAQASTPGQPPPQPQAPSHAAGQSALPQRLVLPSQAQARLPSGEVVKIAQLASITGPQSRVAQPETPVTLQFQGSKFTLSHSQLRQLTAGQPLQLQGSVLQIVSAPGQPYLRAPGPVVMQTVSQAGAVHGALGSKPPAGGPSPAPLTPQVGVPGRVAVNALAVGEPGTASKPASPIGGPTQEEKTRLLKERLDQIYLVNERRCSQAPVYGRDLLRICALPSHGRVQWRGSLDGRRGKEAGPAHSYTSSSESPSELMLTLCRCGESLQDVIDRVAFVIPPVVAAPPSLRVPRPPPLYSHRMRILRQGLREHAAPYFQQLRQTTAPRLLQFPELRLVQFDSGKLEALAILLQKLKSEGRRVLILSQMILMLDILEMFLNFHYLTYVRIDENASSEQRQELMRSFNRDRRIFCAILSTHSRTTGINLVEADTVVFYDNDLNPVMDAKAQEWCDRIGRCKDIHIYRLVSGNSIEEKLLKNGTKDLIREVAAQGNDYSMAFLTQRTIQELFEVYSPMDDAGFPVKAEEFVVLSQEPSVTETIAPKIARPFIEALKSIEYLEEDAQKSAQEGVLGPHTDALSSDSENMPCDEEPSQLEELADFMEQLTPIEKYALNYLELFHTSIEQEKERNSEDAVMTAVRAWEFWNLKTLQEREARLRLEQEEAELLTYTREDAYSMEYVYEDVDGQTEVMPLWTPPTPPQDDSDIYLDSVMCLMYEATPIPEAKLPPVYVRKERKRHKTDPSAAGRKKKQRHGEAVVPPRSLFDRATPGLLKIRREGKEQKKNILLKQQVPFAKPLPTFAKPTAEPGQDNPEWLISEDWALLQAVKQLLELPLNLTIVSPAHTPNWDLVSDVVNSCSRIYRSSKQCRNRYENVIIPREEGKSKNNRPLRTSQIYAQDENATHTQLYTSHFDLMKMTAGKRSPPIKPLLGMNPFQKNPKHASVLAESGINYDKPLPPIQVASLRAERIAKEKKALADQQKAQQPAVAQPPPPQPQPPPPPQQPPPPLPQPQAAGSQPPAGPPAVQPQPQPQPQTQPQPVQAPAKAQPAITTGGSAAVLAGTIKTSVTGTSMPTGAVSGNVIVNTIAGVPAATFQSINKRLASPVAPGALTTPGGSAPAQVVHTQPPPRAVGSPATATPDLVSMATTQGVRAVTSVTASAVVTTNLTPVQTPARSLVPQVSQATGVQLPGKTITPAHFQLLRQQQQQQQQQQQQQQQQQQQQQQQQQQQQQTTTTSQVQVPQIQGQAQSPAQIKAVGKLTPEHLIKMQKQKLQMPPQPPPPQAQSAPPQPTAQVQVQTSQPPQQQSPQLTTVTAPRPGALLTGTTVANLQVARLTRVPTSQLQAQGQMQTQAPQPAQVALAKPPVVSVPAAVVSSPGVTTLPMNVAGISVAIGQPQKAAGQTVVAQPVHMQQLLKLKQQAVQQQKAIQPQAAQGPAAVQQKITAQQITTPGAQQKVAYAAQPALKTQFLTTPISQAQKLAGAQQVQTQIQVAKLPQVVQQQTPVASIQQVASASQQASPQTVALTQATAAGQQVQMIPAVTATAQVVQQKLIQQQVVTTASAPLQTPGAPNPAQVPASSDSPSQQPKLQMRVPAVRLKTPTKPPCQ

Substance	binding
DMAP1 (endogenous) (from UniProt Q9NPF5 1-467)	binds
BRG1, core ATPase subunit of the human SWI/SNF chromatin remodelling complexes (from UniProt P51532 1-1647)	binds
TIP60 histone acetyltransferase (endogenous) (from UniProt Q92993 1-513)	no binding
BRD8 (Bromodomain-containing protein 8) (from UniProt Q9H0E9 1-1235)	binds
EP400 ATPase (E1A binding protein) (from UniProt Q96L91 1-3159)	no binding
TRRAP (Transformation/transcription domain-associated protein) (from UniProt Q9Y4A5 1-3859)	no binding
YEATS4 (from UniProt O95619 1-227)	binds

Reference: article doi:10.1101/2021.05.30.446361
